Experimental data taken from patent publication US20250051442A1 (UNIVERSITY OF TSUKUBA, published 2025).
Positions count from the first letter of the chain named. Results are given in words; binding and its absence hold for the method and conditions named. Some binding calls cover weakened binding; strength is not graded here.

T1: human DNAM-1 (human, UniProt Q15762 19-336)
T1 construct: whole, on cells; also called hDNAM-1; CD226
T1 sequence (looked up): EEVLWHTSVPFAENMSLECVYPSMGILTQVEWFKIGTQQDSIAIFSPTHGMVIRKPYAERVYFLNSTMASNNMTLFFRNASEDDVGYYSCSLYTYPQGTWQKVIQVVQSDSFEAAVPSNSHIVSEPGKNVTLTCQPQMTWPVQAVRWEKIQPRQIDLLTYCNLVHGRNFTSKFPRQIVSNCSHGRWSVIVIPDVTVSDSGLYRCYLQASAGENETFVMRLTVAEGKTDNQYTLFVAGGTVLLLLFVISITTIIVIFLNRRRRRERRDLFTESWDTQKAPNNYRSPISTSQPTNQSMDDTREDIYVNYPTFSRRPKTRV

B1: humanized anti-DNAM-1 antibody hAKB1-C (antibody, V domains shown)
VH: QVQLQESGPGLVKPSETLSLTCTVSGYSITSGYYWNWIRQPPGKGLEWMGYISYDGSNNYNPSLKNRVTISRDTSKNQFSLKLSSVTAADTAVYYCARAYYGNYVGYFDVWGQGTTVTVSS
VL: DIQMTQSPSSLSASVGDRVTITCKASQSVSNDVAWYQQKPGKAPKLLIYYASNRYTGVPSRFSGSGSGTDFTFTISSLQPEDIATYYCQQDYSSPLTFGGGTKVEIKR
B2: humanized anti-DNAM-1 antibody hAKB1-D (antibody, V domains shown)
VH: B1 VH with T30S
VL: B1 VL

Molecular target: T1, human DNAM-1
Assay: flow cytometry on hDNAM-1/BW cells, antibody from HEK293 transfectants

Binder	binding
B1	binds
B2	binds
